PubChem BioAssay AID624150 | Cancer Research UK Cambridge – 2012

- Aim: 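Which chromatin factors steer differentiation of epidermal stem cells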 (primary screen)
- System: primary human epidermal keratinocytes
- Reagent: siRNA pool against human genes, 1-2 µM siRNA in 20 µl nucleofection
- Duration: 72 h after transfection plus 48 h differentiation (about 5 days)
- Treatment: five arms for 48 h: vehicle, AG1478 10 µM, BMP2/7 200 ng/ml, both together, or 10% serum
- Measured: 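Per-cell amount of a differentiation marker read by infrared scanning of the plate, given as a z-score within each plate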
- Reading the numbers: z-score, vehicle: higher = more differentiation marker per cell
Here is an unselected part of 331 deposited reagents. 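Each arm had three replicate z-scores, but only the first replicate is printed; higher values mean more differentiation marker per cell.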 Not all columns of the deposit are shown. No sequences are given here.

CREBBP
- z-score, vehicle: -1.18

MBD5
- z-score, vehicle: -0.288

KMT5C
- z-score, vehicle: 0.0923

KDM5D
- z-score, vehicle: -0.619

SIN3A
- z-score, vehicle: -0.796

RERE
- z-score, vehicle: 0.23

Part of the list above, reformatted:
gene,"z-score, vehicle"
KDM5D,-0.619
SIN3A,-0.796

The listing continues.
HLTF
- z-score, vehicle: -0.0139

ASH1L
- z-score, vehicle: 0.519

INTS12
- z-score, vehicle: 0.258

KMT2C
- z-score, vehicle: -0.615

KDM4A
- z-score, vehicle: 1.02

KMT5A
- z-score, vehicle: -0.467
